# Measured values reported in PubChem BioAssay AID2685 (National Center for Advancing Translational Sciences (NCATS), 2010).
# The list shows a part of the results. These are further read-outs of the screen, such as a control signal, another cell line or another target. No call is given for them. Most of these compounds were active or inconclusive in the main read-out, so they are no random draw. The note in brackets gives the kind of curve behind each potency; many fits are weak.
# Experiment: qHTS Assay for Lipid Storage Modulators in Drosophila S3 Cells;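 for cell number change: cells counted by Cell Tracker Red CMTPX staining in the red channel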
# Conditions: BODIPY lipid droplet fluorescence, 18-24 h; for cell number change: measured here: cell count max response, cells fed with added oleic acid
# Outline: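 Drosophila S3 cells got compounds at several concentrations plus oleic acid (400 uM solution). Laser-scanning cytometry with 488 nm excitation read lipid droplets at 500-530 nm and cells at 575-640 nm. Percent activity was relative to 20 uM Triacsin C.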
# [1] = measured here: cell number channel AC50, cells fed with added oleic acid
# [2] = measured here: lipid fluorescence (Fed channel) AC50, cells fed with added oleic acid
SMILES,cell number change [%],AC50 [1],AC50 [2]
CC(Sc1nnc(-c2ccc(O)cc2)o1)C(=O)Nc1cccc2ccccc12 (configuration not stated),-5.6,–,–
O=C1CCC([N+](=O)[O-])C(c2ccccc2F)N1 (configuration not stated),10.8,"0.00411 µM [rising, full curve, poor fit]","29.1 µM [falling, single point]"
COc1ccccc1CNC(=O)C1(c2ccc(Cl)cc2)CC1,26.9,–,"13 µM [rising, single point]"
CC(C)CC1NC(=O)N(CC(=O)c2ccc3c(c2)OCCO3)C1=O (configuration not stated),1.16,–,"29.1 µM [rising, single point]"
O=C(COc1ccc(Cl)cc1Cl)NC1CCSC1=O (configuration not stated),34.4,"1.46 µM [rising, full curve, poor fit]","29.1 µM [rising, single point]"
COCCNC(=O)c1ccc(N2CC3CC(C2)c2cccc(=O)n2C3)c(NC(=O)c2cc(OC)cc(OC)c2)c1 (configuration not stated),–,–,"0.116 µM [falling, single point]"
CC(C)(C)C(=O)CSc1nc2c(c(-c3cccs3)c1C#N)CCC2,25.6,–,"1.64 µM [rising, partial curve]"
COc1ccccc1CNS(=O)(=O)c1ccc2c(c1)CC(C)N2C(=O)C1CC1 (configuration not stated),-27,–,"29.1 µM [falling, single point]"
CC(=O)N1Cc2ccccc2CC1C(=O)NCc1ccccc1F (configuration not stated),9.13,–,"6.51 µM [rising, partial curve, poor fit]"
COc1ccc2occ(NC(C)=O)c2c1,6,–,"0.517 µM [rising, single point]"
COc1ccccc1-c1csc2ncnc(Sc3nnnn3C)c12,10.9,–,"20.6 µM [falling, single point]"
Cc1ccc(C)c(C(=O)CSc2nnnn2-c2cccnc2)c1,23.8,–,"0.103 µM [rising, full curve]"
Cc1ccc(N=c2c([N+](=O)[O-])nn(-c3ccc(Cl)cc3)n2O)cc1C,-78.6,"1.64 µM [falling, partial curve]","1.16 µM [falling, partial curve]"
O=C(NCCc1ccc(Cl)cc1)c1cccc(N2CCCC2=O)c1,7.96,–,"29.1 µM [falling, single point]"
CCOc1ncccc1C(=O)OCc1cn2cc(Cl)ccc2n1,–,"6.51 µM [rising, single point]","0.13 µM [rising, full curve, poor fit]"
O=C(NCc1ccco1)c1cccs1,-12.4,–,–
CCOC(=O)Cn1c(C)[n+](C)c2cc(Cl)c(Cl)cc21,-81.6,"29.1 µM [falling, single point]","29.1 µM [rising, single point]"
Brc1cccc(-c2nnc3n2CCCCC3)c1,9.77,–,"29.1 µM [rising, single point]"
CN(C)CCCN(C(=O)c1ccc2c(c1)CCCC2)c1nc2c(F)cccc2s1,-26.1,–,"16.4 µM [falling, single point]"
CC(C)c1nc2ccccc2c2nnc(SCC(=O)NCc3ccco3)n12,2.51,–,"2.31 µM [rising, partial curve]"

# Of the compounds above, five contain four or more nitrogen atoms.
SMILES,cell number change [%],AC50 [1],AC50 [2]
COCCNC(=O)c1ccc(N2CC3CC(C2)c2cccc(=O)n2C3)c(NC(=O)c2cc(OC)cc(OC)c2)c1 (configuration not stated),–,–,"0.116 µM [falling, single point]"
COc1ccccc1-c1csc2ncnc(Sc3nnnn3C)c12,10.9,–,"20.6 µM [falling, single point]"
Cc1ccc(C)c(C(=O)CSc2nnnn2-c2cccnc2)c1,23.8,–,"0.103 µM [rising, full curve]"
Cc1ccc(N=c2c([N+](=O)[O-])nn(-c3ccc(Cl)cc3)n2O)cc1C,-78.6,"1.64 µM [falling, partial curve]","1.16 µM [falling, partial curve]"
CC(C)c1nc2ccccc2c2nnc(SCC(=O)NCc3ccco3)n12,2.51,–,"2.31 µM [rising, partial curve]"

# Continuation:

SMILES,cell number change [%],AC50 [1],AC50 [2]
Cc1ccc(C(=O)NCCCNC(=O)COc2ccc(Cl)cc2)cn1,15.2,–,–
COc1ccc(C2CC(=O)C=C(NCc3ccccc3)C2)cc1 (configuration not stated),–,–,"0.206 µM [rising, full curve, poor fit]"
Cc1cnc(C(=O)OCC(=O)N=c2sccn2Cc2ccccc2Cl)cn1,30.3,–,"0.112 µM [falling, full curve, poor fit]"
O=C(NCc1ccccc1)C1(c2cccc(F)c2)CCCC1,–,–,"1.84 µM [rising, single point]"
C=CCNC(=O)c1cc2c(=O)n3ccccc3nc2s1,–,–,"0.58 µM [falling, single point]"
COc1cccc(C(=O)C2CCCN(C(=O)CCc3scnc3C)C2)c1 (configuration not stated),-31.6,"20.6 µM [falling, single point]","11.6 µM [falling, partial curve]"
COc1ccc(CN2CCN(Cc3nc4ccccc4s3)CC2CCO)c(C)c1C (configuration not stated),19.6,–,"0.82 µM [rising, single point]"
CC(OC(=O)c1cccc(S(=O)(=O)N2CCCC2)c1)C(=O)c1ccccc1 (configuration not stated),-16.4,–,"29.1 µM [falling, single point]"
C=CCn1cn[nH]c1=S,-26.8,–,"22.4 µM [falling, single point]"
Cc1oc(-c2ccccc2F)nc1CS(=O)(=O)CC(=O)N1CCCCCC1,44.1,"20.6 µM [rising, single point]","29.1 µM [rising, partial curve, poor fit]"
O=C(N/N=C/c1ccccn1)c1cccc(NC(=O)c2ccccc2Cl)c1,5.79,–,–
COc1ccc(C2=NS(=O)(=O)N(C)C(C(=O)Nc3cc(OC)c(OC)c(OC)c3)=C2)cc1,-19.5,–,–
COc1ccc(CNC(=O)C(C#N)c2nc3ccccc3nc2N2CCCC2)cc1 (configuration not stated),-28.4,–,"29.1 µM [falling, single point]"
Cc1sc2ncnc(N3CCC(C(=O)Oc4cccc(Cl)c4Cl)CC3)c2c1C,-43.1,"20.6 µM [falling, single point]","7.31 µM [falling, single point]"
NC(=O)CC(NC(=O)c1ccccc1)c1ccc(N2CCc3ccccc3C2)c([N+](=O)[O-])c1 (configuration not stated),-30.7,"23.1 µM [falling, single point]",–
CSC(=NC#N)N1CCN(C(c2ccccc2)c2ccccc2)CC1,2.7,–,"29.1 µM [rising, single point]"
Cc1ccc(C)c(C(=O)CCC(=O)N2CCN(c3cccc(C(F)(F)F)c3)CC2)c1,10.4,–,"29.1 µM [falling, single point]"
O=C(c1cc(COc2ccc(F)cc2F)on1)N1CCN(C(=O)c2ccco2)CC1,-3.68,–,"0.58 µM [falling, single point]"
CC(Sc1ccc(S(=O)(=O)N2CCCC2)cn1)C(N)=O (configuration not stated),3.26,–,–
O=C(CSc1ncn[nH]1)NCc1ccc(Cl)cc1,9.91,–,"2.91 µM [falling, single point]"

SMILES,cell number change [%],AC50 [1],AC50 [2]
Cc1[nH]c2ccccc2c1SCC(=O)Nc1nccs1,2.04,–,"0.116 µM [rising, full curve, poor fit]"
Cc1nnc(SCC(=O)N2CCc3ccccc32)n1-c1ccccc1,8.94,–,"29.1 µM [rising, single point]"
COC(=O)CSc1cccc2c1C(=O)CC2c1ccccc1 (configuration not stated),27.9,–,"13 µM [rising, partial curve]"
CCCc1nc2sc3c(=O)[nH]cnc3c2c2c1CCCC2,–,–,"6.51 µM [rising, partial curve, poor fit]"
CC(Oc1cccc([N+](=O)[O-])c1)C(=O)NCCC1=CCCCC1 (configuration not stated),33.6,"0.184 µM [rising, full curve, poor fit]","0.82 µM [rising, single point]"
CCCCN(C)C(=O)C(Cc1ccccc1)NS(=O)(=O)c1ccc2c(c1)c(=O)n(C)c(=O)n2C (configuration not stated),-32.3,"29.1 µM [falling, single point]","0.82 µM [rising, full curve, poor fit]"
CC1CN(C(=O)c2ccccc2OCc2ccc(Cl)cc2Cl)CC(C)O1 (configuration not stated),–,–,"0.82 µM [falling, full curve]"
O=C(O)C(c1ccccc1)N1C(=O)/C(=C\c2ccc(-c3ccc(Br)cc3)o2)SC1=S (configuration not stated),-5.56,–,–
COc1cccc(C(=O)CN2CCC(NC(=O)NC3CCCCC3)CC2)c1,8.98,–,–
COc1ccc(-c2cccc(NS(=O)(=O)c3cccc([N+](=O)[O-])c3)c2)nn1,-33.7,"10.3 µM [falling, partial curve]","5.17 µM [falling, partial curve]"
CC(C)(C)C(=O)Nc1ccc(/C=C/C(=O)c2ccco2)cc1,-31.8,"23.1 µM [falling, single point]","4.61 µM [falling, partial curve]"
Cc1ccc(-c2nn(-c3ccccc3)cc2/C=N/O)cc1,-49.2,"18.4 µM [falling, partial curve]","18.4 µM [falling, partial curve, poor fit]"
O=C(CSc1n[nH]c(=O)[nH]c1=O)c1ccc(Cl)cc1Cl,-37.6,"29.1 µM [falling, single point]",–
Cc1ccc(CSCC(=O)N2CCN(c3ccc(F)cc3)CC2)cc1,-19.9,–,"0.116 µM [falling, full curve, poor fit]"
CC(C)Cn1c(SCC(=O)c2c(N)n(C)c(=O)n(C)c2=O)nc2ccccc21,0.188,–,"32.6 µM [falling, single point]"
COc1ccccc1C(=O)NNC(=S)NC(=O)c1cc(OC)c(OC)c(OC)c1,-12.3,–,"0.206 µM [rising, full curve, poor fit]"
CCn1c(SCC(=O)Nc2ccc3c(c2)oc2ccccc23)nnc1-c1ccc(N)cc1,-88.3,"16.4 µM [falling, partial curve]",–
CCc1ccccc1NC(=O)C1CCN(C(=O)c2ccc([N+](=O)[O-])cc2)CC1,22.6,–,–
COc1ccc(NC(=O)CCC(=O)Nc2ccc3nc(N4CCOCC4)cc(C)c3c2)c(OC)c1,7.94,–,"0.58 µM [rising, single point]"
O=[N+]([O-])c1ccc(N2CCN(C(=S)Nc3ccc(F)cc3F)CC2)cc1,-10,–,"25.1 µM [falling, single point]"
